Consider two molecules from US20110207759A1, “METHOD FOR TREATMENT OF ATHEROSCLEROTIC DISEASE” (priority 2010, published 2011).

The test system of the data set is statin-treated patients with atherosclerotic coronary or vascular disease or coronary risk equivalent. Description: Fasting plasma lipids, glucose and C-reactive protein during treatment.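 For all read-outs here: plasma drawn after an overnight fast, LDL-C determined by direct assay and C-reactive protein by high-sensitivity immunoturbidimetry with monoclonal anti-CRP antibodies.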 The note with it: mean ± SD; for Glucose: 208 completers; for Fasting glucose, final values: study completion, n=315.

On to `O=C1[C@H](CC[C@H](O)c2ccc(F)cc2)[C@@H](c2ccc(O)cc2)N1c1ccc(F)cc1` [Ezetimibe, ezetimibe], for which the “Fasting glucose, final values” stood at 111.2 ± 33.8 mg/dL. Further, for the setting “2 Months”, the Glucose was determined as 109.6 ± 39.5 mg/dL. Under “8 Months”, the Glucose is on record as 108.2 ± 27.7 mg/dL. For the same molecule, the Glucose (14 Months) was 110.4 ± 33.4 mg/dL.
For `O=C(O)c1cccnc1` [Niacin, niacin], the “Fasting glucose, final values” came out at 111.5 ± 41.0 mg/dL. Where the note is “2 Months”, the Glucose came to 109.1 ± 23.9 mg/dL. The Glucose (8 Months) is recorded as 107.6 ± 28.1 mg/dL. The Glucose (14 Months) is 107.4 ± 24.9 mg/dL.
